US20120276102A1
No constants are given. Whether binding was seen depends on the method and setting. Some results given as binding are weak or reduced against the parent protein; the word gives no strength.

Amino acid sequences for entries named in this document (tags omitted). A change or cut given only in a name is not applied to a line headed by its entry. Chains listed by the source or under a name are the forms on record and can include a tag or linker.
UniProt Q9JHX3: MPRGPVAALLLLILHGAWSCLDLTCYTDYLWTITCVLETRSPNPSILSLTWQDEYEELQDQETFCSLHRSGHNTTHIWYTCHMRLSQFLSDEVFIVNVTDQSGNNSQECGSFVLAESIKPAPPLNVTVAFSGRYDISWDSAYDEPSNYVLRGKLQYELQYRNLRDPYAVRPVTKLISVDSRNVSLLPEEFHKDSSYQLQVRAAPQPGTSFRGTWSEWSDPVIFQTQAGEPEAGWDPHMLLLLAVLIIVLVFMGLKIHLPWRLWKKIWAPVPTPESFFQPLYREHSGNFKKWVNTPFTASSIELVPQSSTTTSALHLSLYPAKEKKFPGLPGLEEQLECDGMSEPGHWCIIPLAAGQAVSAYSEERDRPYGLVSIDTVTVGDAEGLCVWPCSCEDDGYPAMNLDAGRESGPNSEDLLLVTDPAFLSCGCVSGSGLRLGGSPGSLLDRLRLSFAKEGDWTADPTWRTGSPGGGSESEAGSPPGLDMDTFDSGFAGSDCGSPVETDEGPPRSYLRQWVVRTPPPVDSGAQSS
UniProt Q9HBE5: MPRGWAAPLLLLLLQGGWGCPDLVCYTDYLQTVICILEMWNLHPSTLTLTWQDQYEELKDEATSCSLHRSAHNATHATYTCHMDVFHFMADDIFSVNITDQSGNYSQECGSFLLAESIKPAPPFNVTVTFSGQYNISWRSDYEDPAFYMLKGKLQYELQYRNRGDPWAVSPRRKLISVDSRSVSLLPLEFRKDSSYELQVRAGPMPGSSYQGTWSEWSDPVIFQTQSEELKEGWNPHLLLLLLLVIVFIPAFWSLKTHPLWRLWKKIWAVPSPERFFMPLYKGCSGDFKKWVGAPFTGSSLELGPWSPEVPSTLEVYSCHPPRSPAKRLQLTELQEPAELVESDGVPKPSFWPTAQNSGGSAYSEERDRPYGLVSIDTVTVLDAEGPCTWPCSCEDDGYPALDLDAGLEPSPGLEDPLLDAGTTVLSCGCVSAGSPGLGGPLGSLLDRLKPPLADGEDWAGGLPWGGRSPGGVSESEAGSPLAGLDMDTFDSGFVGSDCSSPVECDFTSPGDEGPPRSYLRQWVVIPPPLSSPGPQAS
cynomolgus monkey IL-21R expressed on cells (G7Q0S8, form named): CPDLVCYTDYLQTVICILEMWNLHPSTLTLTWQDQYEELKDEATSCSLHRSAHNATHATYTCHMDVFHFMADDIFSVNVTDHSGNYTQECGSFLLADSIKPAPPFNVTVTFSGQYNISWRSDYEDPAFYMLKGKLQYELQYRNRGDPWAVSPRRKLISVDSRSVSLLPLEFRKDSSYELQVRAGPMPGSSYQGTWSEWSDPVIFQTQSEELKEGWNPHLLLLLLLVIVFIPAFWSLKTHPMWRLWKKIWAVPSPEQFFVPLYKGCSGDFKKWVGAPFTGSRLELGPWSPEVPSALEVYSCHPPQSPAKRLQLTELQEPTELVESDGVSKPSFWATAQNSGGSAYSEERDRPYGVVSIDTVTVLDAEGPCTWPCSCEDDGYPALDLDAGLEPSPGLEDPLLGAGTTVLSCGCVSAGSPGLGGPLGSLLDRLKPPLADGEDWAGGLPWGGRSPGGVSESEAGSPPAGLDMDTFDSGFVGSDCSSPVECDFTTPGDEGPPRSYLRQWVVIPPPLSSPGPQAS
cynomolgus monkey IL-21R-His/FLAG (G7Q0S8, form named): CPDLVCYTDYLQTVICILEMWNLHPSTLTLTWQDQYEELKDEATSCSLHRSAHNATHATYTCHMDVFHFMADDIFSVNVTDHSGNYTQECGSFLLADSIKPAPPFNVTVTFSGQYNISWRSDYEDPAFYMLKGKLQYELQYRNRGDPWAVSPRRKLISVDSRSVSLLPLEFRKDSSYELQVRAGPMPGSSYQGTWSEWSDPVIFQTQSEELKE

Key:
[1] = biological target: murine IL-21R extracellular domain His-Flag fusion protein (murine) (UniProt Q9JHX3); assay: SPR, Ab captured, 50 nM analyte
[2] = biological target: human IL-21R extracellular domain His-Flag fusion protein (human) (UniProt Q9HBE5); assay: BIACORE: antibody captured on anti-human IgG; varying concentrations of human IL-21R-His/FLAG injected
[3] = biological target: murine IL-21R extracellular domain His-Flag fusion protein (murine) (UniProt Q9JHX3); assay: BIACORE: antibody captured on anti-human IgG; 50 nM murine IL-21R-H/F injected
[4] = biological target: cynomolgus monkey IL-21R expressed on cells (cynomolgus monkey) (UniProt G7Q0S8); assay: cell-based ELISA on CHO cells transiently expressing cynomolgus monkey IL-21R; HRP anti-human IgG, A450
[5] = biological target: murine IL-21R-Fc (murine) (UniProt Q9JHX3); assay: ELISA on mIL-21R-Fc captured by anti-mouse IgG2a, AbS added together with a fixed amount of mIL-21, AbS detected with anti-human Ig
[6] = biological target: cynomolgus monkey IL-21R-His/FLAG (cynomolgus monkey) (UniProt G7Q0S8); assay: BIACORE: antibody captured on anti-human IgG; varying concentrations of cynomolgus monkey IL-21R-His/FLAG injected
[7] = biological target: murine IL-21R extracellular domain His-Flag fusion protein (murine) (UniProt Q9JHX3); assay: BIACORE: antibody captured on anti-human IgG; 10-500 nM murine IL-21R-H/F injected
[8] = biological target: murine IL-21R extracellular domain His-Flag fusion protein (murine) (UniProt Q9JHX3); assay: SPR, antibody immobilized, 100 nM receptor
[9] = biological target: human IL-21R extracellular domain His-Flag fusion protein (human) (UniProt Q9HBE5); assay: SPR, antibody immobilized
[10] = biological target: human IL-21R expressed on cells (human) (UniProt Q9HBE5); assay: cell-based ELISA on CHO cells transiently expressing human IL-21R; HRP anti-human IgG, A450
[11] = biological target: human IL-21R extracellular domain His-Flag fusion protein (human) (UniProt Q9HBE5); assay: BIACORE: antibody captured on anti-human IgG; 0-100 nM human IL-21R-H/F injected
[12] = biological target: human IL-21R extracellular domain His-Flag fusion protein (human) (UniProt Q9HBE5); assay: SPR, Ab captured on anti-human IgG
[13] = biological target: cynomolgus monkey IL-21R-His/FLAG (cynomolgus monkey) (UniProt G7Q0S8); assay: SPR, Ab captured on anti-human IgG
[14] = biological target: human IL-21R expressed on cells (human) (UniProt Q9HBE5); assay: cell ELISA, CHO cells
[15] = biological target: cynomolgus monkey IL-21R expressed on cells (cynomolgus monkey) (UniProt G7Q0S8); assay: cell ELISA, CHO cells
[16] = biological target: murine IL-21R extracellular domain His-Flag fusion protein (murine) (UniProt Q9JHX3); assay: BIACORE: AbS immobilized on the chip; murine IL-21R-H/F (100 nM) flowed over
[17] = biological target: murine IL-21R-Fc (murine) (UniProt Q9JHX3); assay: blocking ELISA: rising AbS with a fixed amount of mIL-21 (the blocked ligand) on mIL-21R-Fc captured by anti-mouse IgG2a, mIL-21 detected with HRP anti-His6
[18] = biological target: murine IL-21R-Fc (murine) (UniProt Q9JHX3); assay: ELISA on mIL-21R-Fc captured by anti-mouse IgG2a; AbS detected with anti-human Ig antibody, in the presence of mIL-21

binding [1]: binds
binding [2]: binds
binding [3]: binds
binding [4]: binds
binding [5]: binds
binding [6]: binds
binding [7]: binds
binding [8]: binds
binding [9]: binds
binding [10]: binds
binding [11]: binds
binding [12]: binds
binding [13]: binds
binding [14]: binds
binding [15]: binds
binding [16]: binds
binding [17]: binds
binding [18]: binds
B1: AbS (antibody, V domains shown)
VH: QVQLQESGPGLVKPSETLSLTCAVSGYSISSGYYWGWIRQPPGKGLEWIGSISHTGNTYYNPPLKSRVTISVDTSKNQFSLKLSSVTAADTAVYYCARGGGISRPEYWGQGTLVTVSS
VL: SSELTQDPAVSVALGQTVRITCQGDSLRTYYASWYQQKPGQAPVLVIYGKHKRPSGIPDRFSGSSSGNTASLTITGAQAEDEADYYCMSRSIWGNPHVLFGGGTQLTVL
